Measured values: PubChem BioAssay AID1508600 (Functional Genomics Laboratory (NCATS/FGL), 2020)
In all, about 53,000 sequences went through this assay and about 3,700 (7%) were called active.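 How the source made its calls: active means gene knockdowns whose robust z-score for IL-1 alpha signal is at least 2 or at most -2, so actives lie on both sides; inactive means the rest.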 The list shows a part of the results.

Assay: Components of the Cytosolic LPS Sensing Pathway: Gene Identification via Genome-wide siRNA Screen;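 further: robust z of the log signal after scaling to non-targeting control siRNA wells of the plate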
Details: RAW264.7 macrophages, IL-1a HTRF, actives lie on both sides, screened at 100 nM (by protocol), cells primed 5 h with Pam3CSK4 first
Summary of the method: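 IL-1a HTRF of supernatants after 24 hour LipidA transfection of Pam3CSK4-primed (5 hours) RAW264.7 cells, 48h post-siRNA transfection (100 nM). Scores: percent of plate negative-control median, then log-based robust z-score.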
With GGCCAAGACCUCAGAGAUUTT against Apoa2 the z-score was inactive: -1.39. For GGAAGAGGAAAUGGAAUCATT against Mrnip, the z-score was inactive: 1.42. For CCUCCUGAGGAAACGAUUUTT against Tdh, the z-score was inactive: 0.0107. With GCAUUCCAUGGUACAGGGUTT against Adamts4 the z-score was inactive: -0.646. For “CGAUAUGGCUGGAUUCCAUTT against 4930471G03Rik”, the z-score was inactive: 1.12. With “GCAGUGUAUACCUGGGCUATT against 1700001C19Rik” the z-score was inactive: 0.388. In the case of GCUGUGUGCUAUUUCCCACTT against Flywch2, the z-score is reported as inactive: 1.52. For CCGAAUUCGGUUUAAGCUCTT against Gtf2ird1, the z-score was inactive: -0.0731. With GCUUACGUAGGAAAUCUCCTT against Eif4h the z-score was inactive: -0.00512. In the case of GGAGAAAAGCAAUAAUGAATT against Klf12, the z-score is reported as inactive: -1.07. In the case of GGAAAUAGUACAGAAACCATT against Mcph1, the z-score is reported as active: -2.44. With GGCACACUCUCGCAUCUAATT against Lcn4 the z-score was inactive: -0.735. With CCAGGUUGUAAAAACAGUUTT against Rdx the z-score was inactive: -0.356. For “GGACAUCAUAUUCGUUUUCTT against C130026L21Rik”, the z-score was inactive: 1.12. For GGAAAGAGAAAAACAACCATT against Cngb3, the z-score was inactive: -0.522. For GCCUGGACAAGUUUCUGAATT against Olfr726, the z-score was inactive: 0.0426. In the case of AAACGAUUCUGCAUUUAGCTT against Crh, the z-score is reported as inactive: 1.5. In the case of CCAAAACCGCACAGUAGUATT against Olfr1065, the z-score is reported as inactive: 0.0232. For CGAGUAUUUUGAAAUCCUGTT against Cdcp3, the z-score was inactive: 0.406. With GGAGAUUUACCGCUACAGUTT against Scrib the z-score was inactive: 0.855. With GUCCUUGGGACAUUCUCUUTT against Olfr168 the z-score was inactive: -0.997. In the case of GCCAAUACCUAAGUUCUAUTT against F8a, the z-score is reported as inactive: 0.297. For GGAACAAAAAGAUCUUUGATT against Pdzrn3, the z-score was inactive: -1.01. For GGUGAACAGUUGAUUUCAUTT against Smim10l2a, the z-score was inactive: 1.48. With GGAAAUACAAGCCUUAAAUTT against Trabd the z-score was inactive: 0.5. With GGCUGCAAGGACAAGAGAATT against Fam174c the z-score was inactive: 1.66. For GGCUGUGUUGAAAGUUUUCTT against Olfr564, the z-score was inactive: 0.32. With GGAUCUGAAGAACAAGAUCTT against Krt17 the z-score was inactive: 0.399. With GGUACAAGAUCAAGUCUCCTT against Scml4 the z-score was inactive: -0.265.
